Results from PMC3967948.
These are yes or no findings as the source states them, for the method shown. In cells and extracts the contact can be indirect. For some of these results: Binding can be weak; no strength is given.

The chains behind the UniProt entries cited, without tags or fusion partners. Where a name states a change or a piece, a line headed by the entry shows the natural chain unless it says otherwise.
UniProt P70324: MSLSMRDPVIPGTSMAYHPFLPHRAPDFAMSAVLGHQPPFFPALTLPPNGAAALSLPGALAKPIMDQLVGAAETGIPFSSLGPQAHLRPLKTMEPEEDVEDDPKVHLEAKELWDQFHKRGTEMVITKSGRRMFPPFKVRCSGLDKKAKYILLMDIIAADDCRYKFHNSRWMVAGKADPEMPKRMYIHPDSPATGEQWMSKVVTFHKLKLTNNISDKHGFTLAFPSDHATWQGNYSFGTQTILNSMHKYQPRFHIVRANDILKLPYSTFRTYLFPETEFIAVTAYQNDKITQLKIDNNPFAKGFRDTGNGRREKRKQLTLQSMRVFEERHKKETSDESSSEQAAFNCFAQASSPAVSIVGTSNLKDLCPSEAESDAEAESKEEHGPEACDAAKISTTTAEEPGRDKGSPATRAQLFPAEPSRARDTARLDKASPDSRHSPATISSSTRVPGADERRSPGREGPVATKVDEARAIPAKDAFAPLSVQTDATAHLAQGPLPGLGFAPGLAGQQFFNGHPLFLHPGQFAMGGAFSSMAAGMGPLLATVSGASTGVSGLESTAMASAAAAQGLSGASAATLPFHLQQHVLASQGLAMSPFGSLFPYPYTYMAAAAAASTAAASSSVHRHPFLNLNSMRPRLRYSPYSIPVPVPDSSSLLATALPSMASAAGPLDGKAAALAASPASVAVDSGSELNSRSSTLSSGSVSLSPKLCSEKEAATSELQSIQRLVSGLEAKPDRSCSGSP
UniProt O00571: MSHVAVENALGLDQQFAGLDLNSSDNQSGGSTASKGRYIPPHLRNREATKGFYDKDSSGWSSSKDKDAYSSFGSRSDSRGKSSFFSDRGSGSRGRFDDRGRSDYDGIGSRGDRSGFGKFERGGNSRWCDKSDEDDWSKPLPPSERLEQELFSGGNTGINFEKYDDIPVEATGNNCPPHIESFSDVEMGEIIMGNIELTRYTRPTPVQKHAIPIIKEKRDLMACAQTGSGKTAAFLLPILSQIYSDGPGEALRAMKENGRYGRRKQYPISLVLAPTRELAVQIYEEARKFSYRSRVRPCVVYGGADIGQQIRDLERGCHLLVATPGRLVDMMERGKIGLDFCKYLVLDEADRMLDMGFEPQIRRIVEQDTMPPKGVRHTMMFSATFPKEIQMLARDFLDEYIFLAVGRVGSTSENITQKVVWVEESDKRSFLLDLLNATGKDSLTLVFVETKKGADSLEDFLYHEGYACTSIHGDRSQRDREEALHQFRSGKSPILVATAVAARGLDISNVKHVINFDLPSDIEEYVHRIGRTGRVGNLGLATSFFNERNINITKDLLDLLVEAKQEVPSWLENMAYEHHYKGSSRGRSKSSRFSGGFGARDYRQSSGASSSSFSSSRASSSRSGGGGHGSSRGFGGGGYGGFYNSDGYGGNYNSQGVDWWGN
UniProt Q92841: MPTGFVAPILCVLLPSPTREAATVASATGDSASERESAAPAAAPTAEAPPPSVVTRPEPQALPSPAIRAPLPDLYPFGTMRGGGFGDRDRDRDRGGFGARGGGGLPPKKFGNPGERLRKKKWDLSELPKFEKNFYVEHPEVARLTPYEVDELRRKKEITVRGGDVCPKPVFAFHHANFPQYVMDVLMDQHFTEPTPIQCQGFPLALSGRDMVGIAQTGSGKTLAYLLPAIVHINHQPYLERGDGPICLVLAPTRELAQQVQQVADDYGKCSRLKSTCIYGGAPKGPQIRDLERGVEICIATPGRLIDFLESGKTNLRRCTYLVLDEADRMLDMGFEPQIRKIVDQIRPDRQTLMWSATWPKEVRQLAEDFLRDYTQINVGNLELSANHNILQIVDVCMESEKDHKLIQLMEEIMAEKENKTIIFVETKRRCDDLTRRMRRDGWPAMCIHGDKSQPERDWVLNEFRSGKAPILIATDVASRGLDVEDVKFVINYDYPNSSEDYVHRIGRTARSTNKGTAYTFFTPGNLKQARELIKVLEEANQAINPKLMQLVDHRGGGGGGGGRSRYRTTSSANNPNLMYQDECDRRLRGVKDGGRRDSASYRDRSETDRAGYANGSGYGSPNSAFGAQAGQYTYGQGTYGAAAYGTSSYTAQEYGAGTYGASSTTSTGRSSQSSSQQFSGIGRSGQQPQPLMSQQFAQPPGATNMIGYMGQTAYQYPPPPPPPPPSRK

How the values were obtained:
Assay in all cases: co-IP; HEK293 cells with stable retroviral shRNA knockdown of endogenous TBX3, transfected with wild type or mutant Tbx3; Tbx3 IP, immunoblot for endogenous DDX3, hnRNP C, DDX17
Tbx3ΔRD1 (mouse) = Tbx3ΔRD1 (mouse) (UniProt P70324)
Tbx3 L143P (mouse) = Tbx3 L143P (mouse) (UniProt P70324)
Tbx3 N277D (mouse) = Tbx3 N277D (mouse) (UniProt P70324)
Tbx3+2a (mouse) = Tbx3+2a (mouse) (UniProt P70324)
Tbx3ΔNLS (mouse) = Tbx3ΔNLS (mouse) (UniProt P70324)

binding (Tbx3ΔRD1 (mouse)) | binding (Tbx3 L143P (mouse)) | binding (Tbx3 N277D (mouse)) | binding (Tbx3+2a (mouse)) | binding (Tbx3ΔNLS (mouse)) | Substance
no binding | no binding | no binding | binds | no binding | ATP-dependent RNA helicase DDX3X (from UniProt O00571 1-662)
– | binds | binds | – | – | Probable ATP-dependent RNA helicase DDX17 (from UniProt Q92841 1-729)
